PubChem BioAssay AID1259424, University of Nebraska Medical Center – 2018

Purpose: 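Rank knockdowns across the genome by resemblance to the KSR1 depletion profile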 (primary screen)
System: human HCT116 colon cancer cells
Reagent: siRNA pool against human genes, 50 nM
Read-out: 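Six signature mRNAs by branched-DNA multiplex assay, scaled to two housekeeping genes and non-targeting median, log2; matched to mean KSR1 knockdown profile by Pearson correlation and euclidean distance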
Scale: mean correlation with KSR1 profile and KSR1 correlation: higher = expression change more like KSR1 knockdown; mean distance from KSR1 profile: higher = expression change less like KSR1 knockdown
This is one part, drawn at random, of about 14,000 reagents. 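Higher correlation or smaller distance means closer resemblance to KSR1 loss; control wells, including KSR1 knockdowns, recur on many plates.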 Reagent sequences are not shown. The record does not give: the time to read-out.

no.	Target gene	mean correlation with KSR1 profile	mean distance from KSR1 profile	KSR1 correlation, replicate 1	KSR1 correlation, replicate 2	KSR1 correlation, replicate 3
1	RIPK4	0.375	2.28	0.441	0.345	0.092
2	EPB41L4A	-0.301	2.45	-0.642	-0.221	0.237
3	CMTR1	-0.28	2.14	-0.212	-0.407	-0.0422
4	EPHA8	0.208	1.76	0.116	-0.218	0.248
5	CDC14C	0.341	1.28	0.135	0.173	0.482
6	PES1	0.151	2.65	-0.0474	0.2	-0.000469
7	MAP1S	0.09	4.11	0.0826	0.114	0.125
8	NKX6-1	0.0487	2.47	0.237	0.215	0.0354
9	LIMS2	-0.394	1.8	-0.613	-0.365	-0.564
10	UBR7	-0.0409	1.72	-0.07	-0.205	-0.147
11	PEMT	-0.693	1.83	-0.528	-0.849	-0.651

4 entries from above, reduced to “KSR1 correlation, replicate 1”:
MAP1S = 0.0826
NKX6-1 = 0.237
LIMS2 = -0.613
UBR7 = -0.07

Further entries follow.
no.	Target gene	mean correlation with KSR1 profile	mean distance from KSR1 profile	KSR1 correlation, replicate 1	KSR1 correlation, replicate 2	KSR1 correlation, replicate 3
12	CALN1	0.00526	2.05	-0.17	-0.153	0.307
13	HAS1	0.122	3.38	0.313	-0.0825	0.266
14	MUC6	0.234	2.84	0.296	0.387	0.126
15	FRAT1	-0.27	2.3	-0.317	-0.608	-0.324
16	GSTT1	-0.459	2.59	-0.404	-0.454	-0.543
17	SLC18A2	-0.271	1.9	-0.23	-0.225	-0.289
18	NUDT13	-0.502	2.98	-0.371	-0.583	-0.547
19	C1orf198	0.292	2.18	0.236	0.0603	0.161
20	IFT74	0.217	2.83	0.19	0.114	0.189
21	WIPF1	-0.197	3.27	-0.328	0.197	-0.198
22	PAPSS1	-0.494	2.81	-0.369	-0.334	-0.569
23	ARHGEF5	0.566	2.21	0.732	0.613	0.315
24	ALG1	0.726	2.86	0.863	0.531	0.533
25	NME3	0.763	1.91	0.803	0.685	0.831
26	SEL1L	-0.136	2.24	-0.11	-0.169	-0.176
27	CCNB1	-0.0997	1.66	-0.156	-0.157	-0.0542
28	ANAPC11	-0.702	3.52	-0.668	-0.747	-0.673
29	GPD2	0.272	0.877	0.0785	0.376	0.24
30	POFUT1	-0.542	3.46	-0.528	-0.359	-0.628
31	PSTPIP1	0.0987	2.56	0.2	-0.058	-0.0433
32	TGM3	0.371	2.21	0.543	0.262	0.305
33	P2RY12	0.399	1.65	0.502	0.556	0.1
34	AGO1	0.632	3.13	0.467	0.533	0.41
